Results from patent US11180657B2, “Polysulfonated fluorescence dyes” (ATTO-TEC GmbH, priority 2017, dated 2021).
At least one structure is not confirmed: it was looked up by name or label, or the drawing left a doubt. Marks after values point to notes of the source that are not given here.

Tests used:
[1] = Fluorescence maximum of the dye; format: physicochemical; conditions: solvent PBS pH 7.4
Source text: (§1) Examples of the compounds according to the invention are listed in Tables 2-6, where the structures as well as the absorption and fluorescence maxima are indicated. The spectra of selected compounds are shown FIGS. 5-18.

[2] = Absorption maximum of the dye; format: physicochemical; conditions: solvent PBS pH 7.4
Source text: as §1

## CC1(C)c2c(cc3c4c2CCCN4CCC3)C(NCCCCCC(=O)O)=c2cc3c(cc21)=[N+](Cc1ccc(S(=O)(=O)O)cc1S(=O)(=O)O)CCC3 [Compound 81]
[1]
  λfl: 614^b nm
[2]
  λabs: 476^b nm
